# Test results reported in the supplement of paper PMC9135407.
# Values joined by “and” are separate entries in the source; they are usually repeats but may differ in a detail not shown here. Identical values can stand only once. Counter-ions that a name gives are not always drawn. ± gives the standard deviation of the averaged measurements. This is one part of the list. Baselines shift from plate to plate; read single values as rough.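 Culture-activated primary human stellate myofibroblasts, where regained lipid droplets signal inactivation. Value: share of Hoechst-counted cells above a per-plate Bodipy cutoff, in duplicate wells, with DMSO negative and nortriptyline positive controls on each plate. Hits: a control-normalized score above the plate's top-tenth-percentile nortriptyline wells, or one of a plate's three best wells. Final well concentrations are not given.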
# System: primary human hepatic stellate cells (donor 1)
# Test: percent Bodipy-positive cells; higher = more lipid droplet accumulation
# Settings: 48 h
# [1] = library stock concentration: 10 mM
# [2] = library stock concentration: 80 uM
# [3] = library stock concentration: 400 uM
# [4] = library stock concentration: 2 mM
# [5] = library stock concentration: 3.33 mM
# [6] = library stock concentration: 1 mM
structure (smiles),measurement,setting,value
NCCCCNCCCN [Spermidine trihydrochloride],percent Bodipy-positive cells,[1],8.14% and 10.7%
Nc1ncn([C@H]2C[C@H](O)[C@@H](CO)O2)c(=O)n1 [Decitabine],percent Bodipy-positive cells,[2],49.2 ± 5.1%
same,percent Bodipy-positive cells,[3],35.7 ± 3.1%
same,percent Bodipy-positive cells,[4],40.2 ± 7.6%
same,percent Bodipy-positive cells,[5],9.95 ± 0.71%
O=C(Cc1ccc(-c2ccc(OCCN3CCOCC3)cc2)cn1)NCc1ccccc1,percent Bodipy-positive cells,[2],19 ± 2.4%
same,percent Bodipy-positive cells,[3],28.7 ± 5%
same,percent Bodipy-positive cells,[4],25.3 ± 12%
same,percent Bodipy-positive cells,[5],32.9 ± 9.3%
same,percent Bodipy-positive cells,[1],52.6% and 38.3%
O=c1cc(-c2ccc(O)c(O)c2)oc2cc(O)cc(O)c12 [Luteolin],percent Bodipy-positive cells,,16 ± 3.4%
same,percent Bodipy-positive cells,[6],9.83 ± 3.1%
same,percent Bodipy-positive cells,[5],12.1 ± 2.8%
same,percent Bodipy-positive cells,[1],41.6 ± 1.1%
CC(=O)Nc1ccc(NC(=S)NC(=O)c2ccc(C(C)(C)C)cc2)cc1 [Tenovin-1],percent Bodipy-positive cells,[6],9.6 ± 2%
N#Cc1c(C2CCNCC2)cc(-c2c(O)cccc2OCC2CC2)nc1N,percent Bodipy-positive cells,[2],10.1 ± 0.28%
same,percent Bodipy-positive cells,[3],8.53 ± 1.2%
same,percent Bodipy-positive cells,[4],33.1 ± 2.5%
N#Cc1c(C2CCNCC2)cc(-c2c(O)cccc2OCC2CC2)nc1N [IKK-2 Inhibitor VIII],percent Bodipy-positive cells,[5],32.5 ± 5%
Cl.Clc1ccc(Cn2c(CN3CCCC3)nc3ccccc32)cc1 [Clemizole hydrochloride],percent Bodipy-positive cells,[1],94.06 ± 0.31%
CC(C)N(CCCNC(=O)Nc1ccc(C(C)(C)C)cc1)C[C@H]1O[C@@H](n2ccc3c(N)ncnc32)[C@H](O)[C@@H]1O,percent Bodipy-positive cells,[5],53.6 ± 2.4%
same,percent Bodipy-positive cells,[1],77.8 ± 7.6%
CNc1nccc(-c2cccnc2Oc2cc(C(=O)Nc3cccc(C(F)(F)F)c3)ccc2C)n1,percent Bodipy-positive cells,[3],22.6 ± 3%
same,percent Bodipy-positive cells,[4],19.4 ± 7.2%
C[C@]12CC[C@@H]3c4ccc(O)cc4CC[C@H]3[C@@H]1CC[C@@H]2OC(=O)CCC1CCCC1 [Estradiol cypionate],percent Bodipy-positive cells,library stock concentration: 5 mM,7.19 ± 9%
same,percent Bodipy-positive cells,[1],9.41 ± 2%
C[C@]12CC[C@@H]3c4ccc(O)cc4CC[C@H]3[C@@H]1CC[C@@H]2OC(=O)CCC1CCCC1 [Estradiol Cypionate],percent Bodipy-positive cells,[5],8.25 ± 0.79%
same,percent Bodipy-positive cells,[1],59.7 ± 11%
CCS(=O)(=O)Nc1ccc2[nH]c(O)c(C(=Nc3ccc(CN4CCCCC4)cc3)c3ccccc3)c2c1 [Hesperadin],percent Bodipy-positive cells,[5],20.96 ± 0.17%
same,percent Bodipy-positive cells,[1],84.7 ± 3.9%
Cc1cc(Nc2ccc(NC(=O)c3ccc(Nc4ccnc5ccccc45)cc3)cc2)nc(N)n1,percent Bodipy-positive cells,[5],99.2 ± 1.2%
same,percent Bodipy-positive cells,[1],91 ± 8.8%
CCC(Cc1c(I)cc(I)c(N)c1I)C(=O)O (configuration not stated) [Iopanoic acid],percent Bodipy-positive cells,,9.42 ± 0.36%
CCC(Cc1c(I)cc(I)c(N)c1I)C(=O)O (configuration not stated) [Iopanic acid],percent Bodipy-positive cells,library stock concentration: 3.5 mM,7.99 ± 4.1%
same,percent Bodipy-positive cells,[1],47.1 ± 21%
CCC(NC(C)C)C(O)c1ccc(O)c(O)c1 (configuration not stated) [Isoetharine mesylate],percent Bodipy-positive cells,library stock concentration: 6 mM,13.8 ± 12%
CCC(NC(C)C)C(O)c1ccc(O)c(O)c1 (configuration not stated) [Isoetharine mesylate salt],percent Bodipy-positive cells,,8.2 ± 0.88%
CCC(NC(C)C)C(O)c1ccc(O)c(O)c1 (configuration not stated) [Isotharine mesylate],percent Bodipy-positive cells,[1],41.2 ± 0.87%
CNC(CC(=O)O)C(=O)O [NMDA (N-Methyl-D-aspartic acid)],percent Bodipy-positive cells,[5],5.83 ± 1.1%
same,percent Bodipy-positive cells,[1],26.9 ± 7.1%
CC(=O)OCCNC(=O)c1cccnc1 [N-[2-(Acetoxy)ethyl]-3-pyridinecarboxamide],percent Bodipy-positive cells,[1],11.3 ± 3.1%
CN(C)CC=CC(=O)Nc1cc2c(Nc3ccc(F)c(Cl)c3)ncnc2cc1O[C@H]1CCOC1 [Afatinib (BIBW2992)],percent Bodipy-positive cells,[5],88 ± 3%
CN1CCc2cccc3c2[C@H]1Cc1ccc(O)c(O)c1-3 [Apomorphine r (-)],percent Bodipy-positive cells,library stock concentration: 7.5 mM,8.992 ± 0.044%
CN1CCc2cccc3c2[C@H]1Cc1ccc(O)c(O)c1-3 [Apomorphine hydrochloride hemihydrate],percent Bodipy-positive cells,[1],30.9 ± 5.4%
CN1CCc2cccc3c2[C@H]1Cc1ccc(O)c(O)c1-3 [Apomorphine hydrochloride],percent Bodipy-positive cells,library stock concentration: 6.6 mM,1.65 ± 0.52%
same,percent Bodipy-positive cells,[1],16.3 ± 4.5%
CN1CCc2cccc3c2[C@H]1Cc1ccc(O)c(O)c1-3 [R(-) Apomorphine hydrochloride hemihydrate],percent Bodipy-positive cells,,42.2 ± 12%
CN1CCc2cccc3c2[C@H]1Cc1ccc(O)c(O)c1-3 [(R)-(-)-Apomorphine hydrochloride],percent Bodipy-positive cells,[1],6.46 ± 2.2%
CCOC(=O)C(C)(C)Oc1ccc(Cl)cc1 [Clofibrate],percent Bodipy-positive cells,[6],21.9 ± 3.4%
same,percent Bodipy-positive cells,[1],36.4 ± 0.72%
O=c1cc(N2CCOCC2)oc2c1ccc1ccccc12,percent Bodipy-positive cells,[2],8.22 ± 3%
same,percent Bodipy-positive cells,[3],9.92 ± 4.1%
same,percent Bodipy-positive cells,[4],17.9 ± 16%
same,percent Bodipy-positive cells,[1],7.58% and 5.39%
O=c1cc(N2CCOCC2)oc2c1ccc1ccccc12 [DNA-PK Inhibitor II],percent Bodipy-positive cells,[5],8.34 ± 2.4%
"c1cnc2c(c1)ccc1cccnc12 [1,10-Phenanthroline monohydrate]",percent Bodipy-positive cells,[1],41.3 ± 1.6%
CC(C)NC[C@H](O)COc1ccc(CC(N)=O)cc1 [S-(-)-Atenolol],percent Bodipy-positive cells,[1],5.55 ± 0.65%
CC(C)NC[C@H](O)COc1ccc(CC(N)=O)cc1 [S(-)-Atenolol],percent Bodipy-positive cells,[1],42.9 ± 7.6%
CC(C)NC[C@H](O)COc1ccc(CC(N)=O)cc1 [(S)-(-)-Atenolol],percent Bodipy-positive cells,,34.5 ± 2.6%
CC(C)OC(=O)CCC/C=C/C[C@@H]1[C@@H](/C=C/[C@H](O)CCc2ccccc2)[C@H](O)C[C@@H]1O,percent Bodipy-positive cells,[6],20.9 ± 5.7%
CO[C@@]1(NC(=O)CSCC#N)C(=O)N2C(C(=O)O)=C(CSc3nnnn3C)CS[C@@H]21 [Cefmetazole sodium],percent Bodipy-positive cells,[1],34.4% and 25.6%
CO[C@@]1(NC(=O)CSCC#N)C(=O)N2C(C(=O)O)=C(CSc3nnnn3C)CS[C@@H]21 [Cefmetazole sodium salt],percent Bodipy-positive cells,,7.95 ± 1.7%
C[C@@H]1[C@H](O)[C@@H](C)/C=C/C=C/C=C/C=C/C=C/C=C/C=C/[C@H](O[C@@H]2O[C@H](C)[C@@H](O)[C@H](N)[C@@H]2O)C[C@@H]2O[C@](O)(C[C@@H](O)C[C@@H](O)[C@H](O)CC[C@@H](O)C[C@@H](O)CC(=O)O[C@H]1C)C[C@H](O)[C@H]2C(=O)O [Amphotericin b],percent Bodipy-positive cells,[1],11.7 ± 1.8%
C[C@@H]1[C@H](O)[C@@H](C)/C=C/C=C/C=C/C=C/C=C/C=C/C=C/[C@H](O[C@@H]2O[C@H](C)[C@@H](O)[C@H](N)[C@@H]2O)C[C@@H]2O[C@](O)(C[C@@H](O)C[C@@H](O)[C@H](O)CC[C@@H](O)C[C@@H](O)CC(=O)O[C@H]1C)C[C@H](O)[C@H]2C(=O)O [Amphotericin B],percent Bodipy-positive cells,,21.2 ± 7.8%
same,percent Bodipy-positive cells,[5],5.39 ± 3.3%
same,percent Bodipy-positive cells,[1],10.3 ± 0.14%
CN(C)CC(C)(C)CNc1nn2c(-c3ccccc3)nnc2cc1C1CCC1,percent Bodipy-positive cells,[3],23.7 ± 5.9%
same,percent Bodipy-positive cells,[4],27.1 ± 5.5%
same,percent Bodipy-positive cells,[1],45.5 ± 4.3%
COc1ccc2[nH]c(I)c(CCNC(C)=O)c2c1 [2-Iodomelatonin],percent Bodipy-positive cells,[1],6.62 ± 0.6%
CC(C)c1ccc2c(c1)c(SC(C)(C)C)c(CC(C)(C)C(=O)O)n2Cc1ccc(Cl)cc1,percent Bodipy-positive cells,[1],20.7% and 44.1%
CC(C)c1ccc2c(c1)c(SC(C)(C)C)c(CC(C)(C)C(=O)O)n2Cc1ccc(Cl)cc1 [MK 886 (sodium salt)],percent Bodipy-positive cells,[6],11.3 ± 1.9%
